Earlier results as cited in patent publication US20070197568A1, “Methods of using SAHA and Erlotinib for treating cancer” (priority 2005, published 2007).

Legend:
[1] = system: carcinogen-induced (N-methylnitrosourea) mammary tumors; settings: rats, SAHA in diet over the 130 days of the study
[2] = animals

For O=C(CCCCCCC(=O)Nc1ccccc1)NO [SAHA, N-Hydroxy-N′-phenyl octanediamide], the “inhibition of development and continued growth of mammary tumors” value [1] is given as “effective at inhibiting the development and continued growth” and the “inhibition of tumor growth” value [2] is given as “effective at inhibiting tumor growth”.
